We go through 37 molecules from the supplement of paper PMC9254222.

The assay concerns HEK293T (UBE3A T485A transfected, BAR Wnt reporter). The assay can be described thus: Renilla luciferase signal (cell health) relative to plate median (fold (linear ratio)); higher = higher Renilla signal. Conditions: 24 h. In a few lines: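 Chemicals were robotically dosed at 0.01–100 uM for 24 h onto HEK293T cells, starting four hours after transfection with a BAR firefly luciferase Wnt reporter, TK-Renilla and an expression plasmid. The cells had been plated at 4500 cells/well in DMEM with 10% FBS at 37°C and 5% CO2. Following a Dual-Glo luciferase readout, the firefly/Renilla ratio served as the Wnt activity measure and raw Renilla as the cell health measure, both median-centred on each plate. Each value is the mean of four biological replicates.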

The full ranking holds about 1,100 compounds; the median of “Renilla luciferase signal (cell health) relative to plate median” is about 0.97, and the highest 2% start at about 1.6. The list shows a part of the results, in another mix than the full data.

Regarding `CCCCCCCCCCCCCO` [1-Tridecanol], the Renilla luciferase signal was 1.24 (concentration: 0.1 uM), 1.19 (concentration: 1 uM), 1.31 (concentration: 10 uM) and 1.29 (concentration: 100 uM).
On the same counts, the results for `Cc1cc(C)c(O)c(C)c1` [2,4,6-Trimethylphenol] are 1, 0.968, 0.971 and 1.28.
On the same counts, the results for `CCCCCCCCC(=O)O` [Nonanoic acid] are 0.743, 0.854, 0.901 and 0.975.
For the molecule `CN1CCCC1=O` [N-Methyl-2-pyrrolidone], the Renilla luciferase signal was 1.1 (concentration: 0.1 uM), 1.12 (concentration: 1 uM), 1.22 (concentration: 10 uM) and 1.31 (concentration: 100 uM).
Consider `CC[C@H]1OC(=O)[C@H](C)[C@@H](O[C@H]2C[C@@](C)(OC)[C@@H](O)[C@H](C)O2)[C@H](C)[C@@H](O[C@@H]2O[C@H](C)C[C@H](N(C)C)[C@H]2O)[C@](C)(O)C[C@@H](C)C(=O)[C@H](C)[C@@H](O)[C@]1(C)O` [Erythromycin], for which the Renilla luciferase signal runs as follows: (concentration: 10 uM) 2.38; (concentration: 100 uM) 5.97.
For the molecule `CCCCC(CC)COC(=O)CCCCC(=O)OCc1ccccc1` (stereo not drawn) [Benzyloctyl adipate], the Renilla luciferase signal was 1.06 (concentration: 0.1 uM), 1.07 (concentration: 1 uM), 0.987 (concentration: 10 uM) and 1.15 (concentration: 100 uM).
For `OC(Cn1cncn1)(Cn1cncn1)c1ccc(F)cc1F` [Fluconazole], the Renilla luciferase signal runs as follows: (concentration: 0.1 uM) 0.97; (concentration: 1 uM) 1.05; (concentration: 10 uM) 0.973; (concentration: 100 uM) 0.951.
On the same counts, the results for `Nc1nc(Cl)nc2c1ncn2[C@H]1C[C@H](O)[C@@H](CO)O1` [Cladribine] are 1.2, 1.14, 0.6 and 0.0197.
On the same counts, the results for `CCOCCO` [2-Ethoxyethanol] are 1.23, 1.26, 1.38 and 1.66.
The matching figures for `C#C[C@]1(O)CC[C@H]2[C@@H]3CCc4cc(O)ccc4[C@H]3CC[C@@]21C` [17alpha-Ethinylestradiol]: 0.567, 1.05, 1.01 and 0.104.
`O=C(O)Cn1c(=O)n(Cc2ccc(Br)cc2F)c(=O)c2ccc(Cl)cc21` [Zenarestat]: the Renilla luciferase signal runs as follows: (concentration: 0.1 uM) 1.11; (concentration: 1 uM) 0.96; (concentration: 10 uM) 1.03; (concentration: 100 uM) 0.927.
The matching figures for `COc1ccc([N+](=O)[O-])cc1N` [2-Methoxy-5-nitroaniline]: 0.977, 1.08, 0.973 and 0.884.
With `Cc1cc2c(cc1C(F)(F)F)N(C(=O)Nc1ccc(Oc3cccnc3C)nc1)CC2.Cl`, the Renilla luciferase signal is 1 (concentration: 0.1 uM), 0.823 (concentration: 1 uM), 0.656 (concentration: 10 uM) and 0.6 (concentration: 100 uM).
The matching figures for `C1CNCCN1` [Piperazine]: 0.493, 0.699, 0.718 and 0.971.
As for `CC(C)=CCC/C(C)=C/CO` [Geraniol], the Renilla luciferase signal (concentration: 0.1 uM) was found to be 0.81, the Renilla luciferase signal (concentration: 1 uM) is 0.784, the Renilla luciferase signal (concentration: 10 uM) was determined as 0.843 and the Renilla luciferase signal (concentration: 100 uM) was found to be 0.959.
On the same counts, the results for `CCCC(=O)OCC` [Ethyl butyrate] are 1.01, 1.17, 1.21 and 0.875.
As to `Cc1nc(-c2ccccn2)ncc1C(=O)Nn1cc(C)c2cc(F)ccc21`, the Renilla luciferase signal runs as follows: (concentration: 0.1 uM) 0.941; (concentration: 1 uM) 0.877; (concentration: 10 uM) 1.05; (concentration: 100 uM) 1.02.
Take `N#CSCSc1nc2ccccc2s1` [2-(Thiocyanomethylthio)benzothiazole]: the Renilla luciferase signal came out at 0.977 (concentration: 0.01 uM); 1.06 (concentration: 0.1 uM); 1.07 (concentration: 1 uM); 1.05 (concentration: 10 uM); 0.00942 (concentration: 100 uM).
In the case of `CC[C@H](C)[C@@H](C(=O)O)n1sc2ccccc2c1=O`, the Renilla luciferase signal came out at 0.944 (concentration: 0.1 uM), 1.08 (concentration: 1 uM), 1.57 (concentration: 10 uM) and 1.49 (concentration: 100 uM).
The matching figures for `Oc1cc2ccccc2c2ccccc12` [9-Phenanthrol]: 1.08, 1.05, 1.01 and 0.0207.
As for `C#C[C@]1(O)CC[C@H]2[C@@H]3CCC4=CC(=O)CC[C@@H]4[C@H]3CC[C@@]21C` [Norethindrone], the Renilla luciferase signal (concentration: 0.1 uM) turned out to be 0.942, the Renilla luciferase signal (concentration: 1 uM) was determined as 0.982, the Renilla luciferase signal (concentration: 10 uM) is 0.94 and the Renilla luciferase signal (concentration: 100 uM) came to 0.294.
The matching figures for `Oc1ccc2ccccc2c1/N=N/c1ccccc1` [C.I. Solvent Yellow 14]: 0.859, 0.853, 0.859 and 1.03.
On the same counts, the results for `COCC(C)O` (stereo not drawn) [1-Methoxy-2-propanol] are 0.936, 1.12, 1.25 and 1.5.
`CC(=O)OC/C=C(\C)CCC=C(C)C` [Geranyl acetate]: the Renilla luciferase signal by setting is: (concentration: 0.1 uM) 0.968; (concentration: 1 uM) 1.04; (concentration: 10 uM) 0.975; (concentration: 100 uM) 1.16.
The matching figures for `COc1ccc(C(=O)Nc2nc3ccccc3c(NCc3ccccc3)c2C#N)cc1`: 0.975, 0.949, 0.982 and 0.154.
For the molecule `CNC(C)=O` [N-Methylacetamide], the Renilla luciferase signal worked out at 0.866 (concentration: 0.1 uM), 0.862 (concentration: 1 uM), 0.953 (concentration: 10 uM) and 1.02 (concentration: 100 uM).
Take `C=CC(=C)CCC=C(C)C` [Myrcene]: the Renilla luciferase signal runs as follows: (concentration: 0.1 uM) 0.922; (concentration: 1 uM) 0.881; (concentration: 10 uM) 0.926; (concentration: 100 uM) 1.
The matching figures for `Cl.NCC1(Cc2noc(=O)[nH]2)CCCCC1`: 0.881, 0.861, 0.847 and 0.932.
On the same counts, the results for `CC(=O)S[C@@H]1CC2=CC(=O)CC[C@]2(C)[C@H]2CC[C@@]3(C)[C@@H](CC[C@@]34CCC(=O)O4)[C@H]12` [Spironolactone] are 1.02, 1.07, 1.41 and 0.763.
On the same counts, the results for `CC[C@H](c1ccc(O)cc1)[C@@H](CC)c1ccc(O)cc1` [meso-Hexestrol] are 0.857, 0.945, 0.742 and 0.808.
Take `CCCCCCCCCCCCCCCC` [Hexadecane]: the Renilla luciferase signal (concentration: 0.1 uM) came to 0.903, the Renilla luciferase signal (concentration: 1 uM) is 0.847, the Renilla luciferase signal (concentration: 10 uM) was found to be 1.01 and the Renilla luciferase signal (concentration: 100 uM) was determined as 0.946.
In the case of `O=C(Nc1ccc([N+](=O)[O-])cc1Cl)c1cc(Cl)ccc1O` [Niclosamide], the Renilla luciferase signal by setting is: (concentration: 0.01 uM) 1.45; (concentration: 0.1 uM) 1.33; (concentration: 1 uM) 0.273; (concentration: 10 uM) 0.00822; (concentration: 100 uM) 0.0081.
`CCCCCOC(C)=O` [Pentyl acetate]: the Renilla luciferase signal (concentration: 0.1 uM) amounted to 1.13, the Renilla luciferase signal (concentration: 1 uM) was found to be 1.15, the Renilla luciferase signal (concentration: 10 uM) amounted to 1.15 and the Renilla luciferase signal (concentration: 100 uM) is 1.18.
Consider `Cl.Nc1ccn([C@@H]2O[C@H](CO)[C@@H](O)[C@@H]2O)c(=O)n1` [Cytarabine hydrochloride], for which the Renilla luciferase signal (concentration: 0.1 uM) stood at 0.829, the Renilla luciferase signal (concentration: 1 uM) came out at 0.907, the Renilla luciferase signal (concentration: 10 uM) was 0.626 and the Renilla luciferase signal (concentration: 100 uM) is 0.809.
On the same counts, the results for `Cc1ncc(CO)c(CO)c1O` [Pyridoxine] are 0.951, 0.873, 1 and 1.14.
On the same counts, the results for `CCN(CC)CCNc1ccc(CNC=O)c2sc3ccc(OC)cc3c(=O)c12` are 0.886, 0.626, 0.193 and 0.0173.
The matching figures for `Cl.Cn1c(=O)cc(Oc2ccc(F)cc2F)c2cnc(NCC(C)(C)O)nc21`: 0.797, 0.843, 0.729 and 0.205.
